The list shows a part of the results. Repeats in this data set agree poorly, so a single value says little.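 HEK293T cells were given each compound shortly before transfection with a reporter in which red mCherry is followed by the SARS-CoV-2 frameshift element and then GFP in the −1 frame, so GFP appears only after frameshifting.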
Tested on: HEK293T
Test: percent viability (nuclei count) relative to control; higher = more viable cells
Conditions: 10 µM; 24 h

SMILES	percent viability
CCCCCCn1c(=O)c2c(ncn2C)n(C)c1=O [pentifylline]	101%
COc1ccc(C(=O)c2ccc(C)cc2)c(O)c1 [mexenone]	162%
CC(C)CC(N)=O	143%
CC1(C)S[C@@H]2[C@H](NC(=O)[C@H](NC(=O)N3CCN(S(C)(=O)=O)C3=O)c3ccccc3)C(=O)N2[C@H]1C(=O)O [Mezlin]	248%

Reference: the supplement of paper PMC8256030
